Consider 43 compounds from PubChem BioAssay AID2685 (National Center for Advancing Translational Sciences (NCATS), 2010).

The experiment is described as follows: qHTS Assay for Lipid Storage Modulators in Drosophila S3 Cells.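 On cell number change: cells counted by Cell Tracker Red CMTPX staining in the red channel.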 Conditions: BODIPY lipid droplet fluorescence, 18-24 h; for cell number change: measured here: cell count max response, cells fed with added oleic acid. The gist of the method: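 Drosophila S3 cells got compounds at several concentrations plus oleic acid (400 uM solution). Laser-scanning cytometry with 488 nm excitation read lipid droplets at 500-530 nm and cells at 575-640 nm. Percent activity was relative to 20 uM Triacsin C.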
(In general: Quantitative high-throughput screening tests each substance at several concentrations.)

Where [1] appears, read: measured here: lipid fluorescence (Fed channel) AC50, cells fed with added oleic acid.
Setting [2] is: measured here: cell number channel AC50, cells fed with added oleic acid.

The other results are listed elsewhere or left out. These are further read-outs of the screen, such as a control signal, another cell line or another target. No call is given for them. Compounds called inactive in the main read-out are mostly missing here. Words in brackets tell the shape of the fitted curve; partial curves, single points and poor fits give uncertain potencies.

`Cc1ccc(C)c(NC(=O)c2cnc3n(c2=O)CCS3)c1`: under setting [1], the AC50 is 0.517 µM [rising, single point].

Regarding `N#Cc1c(-c2cccs2)cc(C2CC2)nc1SCC(N)=O`, the cell number change was determined as 3.18%. The AC50 under setting [1] was 14.6 µM [rising, partial curve].

With `COc1ccc(-n2ncc3c2CC(C)(C)CC3NC(=O)c2ccoc2C)cc1` (configuration not stated), the cell number change is -22.3%. The AC50 under setting [1] is 29.1 µM [falling, single point].

Take `CCc1ccc(CCC(=O)Nc2ccc(Cl)cc2)o1`: the cell number change came to 2.59%. Moreover, the AC50 under setting [1] was 0.206 µM [rising, full curve, poor fit].

Consider `Oc1ccc(C23CC4CC(CC(C4)C2)C3)cc1O`, for which the cell number change is -13.4%. Also, the AC50 under setting [2] was 0.231 µM [rising, full curve, poor fit].

For the compound `COCCNC(=O)c1ccccc1NC(=O)c1cc(OC)cc(OC)c1`, the cell number change is -0.995%. The AC50 under setting [1] was 1.84 µM [rising, partial curve].

On to `O=C(NCCCN1CCOCC1)c1ccc2c(c1)N(Cc1ccccc1F)C(=O)c1ccccc1S2=O` (configuration not stated), for which, under setting [1], the AC50 was 6.51 µM [rising, single point].

Consider `Nc1c(C(=O)Nc2ccccc2F)sc2nc(-c3ccco3)ccc12`, for which the cell number change is -35.1%. Further, the half-maximal activity concentration (AC50) under setting [1] is 23.1 µM [falling, partial curve, poor fit].

As for `O=C1CN2NC(=S)N(c3ccccc3)C2=CN1c1ccc(Cl)cc1`, the cell number change is -34.7%. In addition, under setting [2], the half-maximal activity concentration (AC50) is 5.17 µM [falling, full curve]. For the same compound, under setting [1], the AC50 is 9.2 µM [falling, partial curve].

With `O=C(Oc1ccc(C(=S)N2CCOCC2)cc1Br)c1ccccc1F`, the AC50 under setting [1] was 2.06 µM [rising, partial curve, poor fit].

For `COc1ccc(NS(=O)(=O)c2cccc(C(=O)N3CCN(Cc4ccc5c(c4)OCO5)CC3)c2)cc1`, the cell number change was 10.2%.

`CCn1c(C(=O)NCc2cccnc2)cc2sc(Cl)cc21`: the cell number change stood at 52.4%. For the same compound, the AC50 under setting [2] is 4.11 µM [rising, full curve, poor fit].

For the compound `COc1ccc(S(=O)(=O)N2CCOCC2)cc1C(=O)Nc1cc(C)on1`, the cell number change was determined as 11%.

For the compound `CC(C)C(=O)NC(CC(=O)O)c1ccccc1` (configuration not stated), the cell number change turned out to be 29.5%.

As for `CCNc1nc(NC(C)C)nc(Oc2ccc(OCCOc3ccccc3)nn2)n1`, the cell number change is -16.2%. Moreover, the AC50 under setting [1] is 29.1 µM [falling, single point].

`CCOc1ccc(N(C)C(=O)CCc2nnc3ccc(N4CCOCC4)nn23)cc1`: the AC50 under setting [1] is 1.84 µM [falling, partial curve].

As to `CCOC(=O)CN1C(=O)S/C(=C/c2cc(C)n(-c3ccccn3)c2C)C1=O`, the cell number change was found to be 46.4%. Further, the AC50 under setting [2] was 16.4 µM [rising, single point].

Take `O=C(CCc1nnc(Cc2ccc3c(c2)OCO3)o1)NCc1nc2ccccc2s1`: the cell number change was -25.4%. Moreover, under setting [1], the AC50 was 0.731 µM [falling, single point].

As to `COC(=O)Cn1c(=NC(=O)c2nc3ccccc3s2)sc2cc(S(N)(=O)=O)ccc21`, the cell number change worked out at 4.47%. For the same compound, the AC50 under setting [1] was 0.13 µM [rising, full curve, poor fit].

On to `Cc1ncoc1C(=O)Nc1cccc(Cl)c1`, for which the cell number change is 8.7%.

Consider `COC(=O)CCNC(=O)CCc1ccc(S(=O)(=O)N2CCCCCC2)cc1`, for which, under setting [1], the AC50 was 0.259 µM [rising, full curve, poor fit].

In the case of `CCC(=O)Nc1ccc(NC(=S)NC(=O)/C=C/c2ccccc2)cc1`, the cell number change was -20.8%. The AC50 under setting [1] is 1.46 µM [falling, full curve].

`Cc1ccsc1C1Nc2ccccc2C(=O)N1O` (configuration not stated): the cell number change was -9.08%. For the same compound, the AC50 under setting [1] was 0.092 µM [rising, full curve, poor fit].

With `O=C(Cc1ccccc1[N+](=O)[O-])NNC(=O)c1cccs1`, the cell number change was -1.69%.

For the compound `COC(=O)Cn1c(=O)sc2ccccc21`, the cell number change was -14.7%. The AC50 under setting [1] was 0.231 µM [falling, full curve, poor fit].

In the case of `Cn1ccc(/C=N/N=C2/NC(=O)CS2)n1`, the cell number change was -32.1%. The AC50 under setting [2] is 7.31 µM [falling, partial curve, poor fit]. Further, the AC50 under setting [1] is 3.66 µM [falling, full curve].

Take `Cc1c(/C=N/NC(=O)c2cc(Br)ccc2O)c(=O)n(C)c(=O)n1C`: the AC50 under setting [1] is 7.31 µM [falling, partial curve].

Regarding `Cc1ccc(/C=C2\SC(=O)N(CCNC(=O)C3CSC4(C)CCC(=O)N34)C2=O)cc1` (configuration not stated), the cell number change was 24.9%. Further, the AC50 under setting [1] was 25.9 µM [falling, single point].

As for `COC(=O)CSc1nc2[nH]ncc2c(=O)[nH]1`, the cell number change was -17.6%. The AC50 under setting [1] is 4.61 µM [falling, full curve, poor fit].

Take `O=S1(=O)CCOC[C@H](c2ccccc2)N1Cc1ccccc1F`: the cell number change was found to be 29%. Besides, the AC50 under setting [1] is 29.1 µM [rising, single point].

Consider `CC(/C=N\NC(=O)c1ccc2c(c1)OCO2)c1ccccc1` (configuration not stated), for which the cell number change is -16.9%.

On to `CCOc1cc2c(cc1OCC)C(c1ccc(C(=O)O)cc1)NCC2` (configuration not stated), for which the cell number change turned out to be 14.9%.

On to `O=C(COC(=O)c1ccc[nH]c1=O)NC1CCCCCCC1`, for which the cell number change came out at 12.1%.

As for `Cc1cccc(NC2=NC(=S)N(c3cccc(C(=O)O)c3)C23CCCCC3)c1`, the cell number change is -20.4%. In addition, the AC50 under setting [1] was 32.6 µM [falling, partial curve].

In the case of `COc1ccc(Cn2cccc(NC(=O)Nc3cccc(OC)c3)c2=O)cc1`, the cell number change was -43.4%. Also, the AC50 under setting [2] was 32.6 µM [falling, single point].

With `COc1ccc(N2CCN(C(=O)c3cc(C4CC4)nn3-c3ccccc3)CC2)cc1`, the cell number change amounted to 0.834%. Under setting [1], the AC50 is 1.64 µM [falling, partial curve].

For the compound `CCOc1ccc(C(=O)Nc2ccccc2N2CCOCC2)cc1`, the cell number change was -0.384%. For the same compound, the AC50 under setting [1] is 6.51 µM [rising, single point].

For the compound `CCCn1c(N)c(C(=O)CN(C)CC(=O)Nc2ccccc2CC)c(=O)[nH]c1=O`, the cell number change amounted to 10.7%. For the same compound, under setting [1], the AC50 is 29.1 µM [falling, single point].

In the case of `Cc1ccc(NC(=O)C2CCCN(c3ncccn3)C2)cc1F` (configuration not stated), the cell number change was -25.6%.

With `Fc1ccc(/C=N\Nc2cccc(F)c2)cc1`, the cell number change was -2.11%. Besides, the AC50 under setting [1] was 6.51 µM [falling, single point].

As for `COc1ccccc1CC(=O)NCCN1CCCCC1`, the cell number change is 39.2%. Moreover, under setting [2], the AC50 is 29.1 µM [rising, single point].

For `O=C(Nc1c(C(=O)N2CCN(c3ccccn3)CC2)oc2ccccc12)c1cccc([N+](=O)[O-])c1`, the cell number change was -12.5%. Moreover, the AC50 under setting [1] is 29.1 µM [falling, single point].

`CCOc1ccc2[nH]c(C)c(CN3CCOCC3)c(=O)c2c1`: the cell number change came out at 3.08%.

In general, AC50 refers to the concentration at which the activity in the assay is half-maximal.
